For part of these data: HELM strings list residues between dots; [ac] is acetyl, [am] amide, other brackets name non-standard units.
Key:
hCMEC/D3 cells = test: BBB permeability study, TEER measurement of barrier integrity; type: in vitro ADME, human; details: hCMEC/D3 monolayer on 0.4 μm insert, 40 μM in HBSS apical, 37 °C, 100 rpm; variance vs start; mean ± SD, n = 3
[1] = general procedure: Fmoc solid-phase peptide synthesis; Rink Amide; HBTU/DIEA; details: whole synthesis, scale 0.2 mmol

Compound | ΔTEER at t=0 min (hCMEC/D3 cells) | ΔTEER at t=240 min (hCMEC/D3 cells) | final HPLC purity ([1]; 220 nm) [%] | isolated mass [1] [mg]
CC(C)C[C@H](NC(=O)[C@H](C)NC(=O)[C@H](CCCCN)NC(=O)[C@H](CC(C)C)NC(=O)[C@H](C)NC(=O)[C@H](CC(C)C)NC(=O)[C@H](CCCCN)NC(=O)[C@H](CC(C)C)NC(=O)[C@H](C)NC(=O)[C@H](CC(C)C)NC(=O)[C@H](CCCCN)NC(=O)[C@@H](N)Cc1cn(CC(=O)Nc2c3c(nc4ccccc24)CCCC3)nn1)C(=O)N[C@@H](CCCCN)C(=O)N[C@@H](C)C(=O)N[C@@H](C)C(=O)N[C@@H](CC(C)C)C(=O)N[C@@H](CCCCN)C(=O)N[C@@H](CC(C)C)C(=O)N[C@@H](C)C(N)=O [MAP-Tacrine conjugate] | 0 ± 21 Ω/cm^2 | -29 ± 33 Ω/cm^2 |  | 
PEPTIDE1{K.L.A.L.K.L.A.L.K.A.L.K.A.A.L.K.L.A.[am]}$$$$V2.0 |  |  | 100 | 16.0
Nc1c2c(nc3ccccc13)CCCC2 [Tacrine, reference compound] | 0 ± 27 Ω/cm^2 | -36 ± 27 Ω/cm^2 |  | 

From paper PMC7795729 (International Journal of Molecular Sciences, 2020)
